Results from US20050251879A1.
No constants are given. Whether binding was seen depends on the method and setting. Some entries that bind do so weakly or less than the wild type. Where a sequence is shown, tags or fusion partners need not be part of it.

By UniProt entry, the sequences of proteins in these tests, tags left out. Where a name states a change or a piece, a line headed by the entry shows the natural chain unless it says otherwise.
UniProt P04386: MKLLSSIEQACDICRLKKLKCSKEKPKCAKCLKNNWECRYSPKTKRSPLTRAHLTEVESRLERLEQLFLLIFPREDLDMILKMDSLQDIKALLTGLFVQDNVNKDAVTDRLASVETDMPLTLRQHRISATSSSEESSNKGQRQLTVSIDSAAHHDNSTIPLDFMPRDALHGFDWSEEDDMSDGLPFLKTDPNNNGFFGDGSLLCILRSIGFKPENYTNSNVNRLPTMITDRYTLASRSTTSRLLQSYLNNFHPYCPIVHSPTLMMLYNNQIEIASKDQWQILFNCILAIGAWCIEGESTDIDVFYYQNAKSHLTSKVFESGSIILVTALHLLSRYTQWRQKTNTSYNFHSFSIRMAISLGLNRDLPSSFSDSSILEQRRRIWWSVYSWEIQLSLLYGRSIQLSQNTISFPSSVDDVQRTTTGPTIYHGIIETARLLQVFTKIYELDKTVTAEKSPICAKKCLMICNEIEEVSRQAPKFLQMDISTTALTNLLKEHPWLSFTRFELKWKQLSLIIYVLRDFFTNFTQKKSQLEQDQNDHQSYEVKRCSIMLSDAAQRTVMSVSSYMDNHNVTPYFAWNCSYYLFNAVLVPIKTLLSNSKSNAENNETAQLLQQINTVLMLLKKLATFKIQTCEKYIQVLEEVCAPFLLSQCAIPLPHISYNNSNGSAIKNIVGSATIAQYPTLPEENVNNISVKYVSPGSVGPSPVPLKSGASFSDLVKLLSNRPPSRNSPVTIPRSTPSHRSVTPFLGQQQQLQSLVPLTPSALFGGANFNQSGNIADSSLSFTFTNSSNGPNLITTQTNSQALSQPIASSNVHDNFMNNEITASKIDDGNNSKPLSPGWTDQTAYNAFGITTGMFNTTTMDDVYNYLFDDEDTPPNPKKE

Target: SNF1 fused with the Gal4 binding domain (pBD-SNF1) (UniProt P04386)
Test: yeast two-hybrid, lacZ activity, positive control

B1: SNF4 fused with the Gal4 activation domain (pAD-SNF4) (protein)
chain: MKPTQDSQEKVSIEQQLAVESIRKFLNSKTSYDVLPVSYRLIVLDTSLLVKKSLNVLLQNSIVSAPLWDSKTSRFAGLLTTTDFINVIQYYFSNPDKFELVDKLQLDGLKDIERALGVDQLDTASIHPSRPLFEACLKMLESRSGRIPLIDQDEETHREIVVSVLTQYRILKFVALNCRETHFLKIPIGDLNIITQDNMKSCQMTTPVIDVIQMLTQGRVSSVPIIDENGYLINVYEAYDVLGLIKGGIYNDLSLSVGEALMRRSDDFEGVYTCTKNDKLSTIMDNIRKARVHRFFVVDDVGRLVGVLTLSDILKYILLGSN
For B1, the binding was “binds”.
